Values quoted from earlier work in patent US20070135514A1, “Methods for the identification of agents for the treatment of seizures, neurological diseases, endocrinopathies and hormonal diseases” (priority 2002, published 2007).
At least one compound was matched to its structure with a doubt left.

Amino acid sequences for entries named in this document (tags omitted).
UniProt Q02563, whole entry: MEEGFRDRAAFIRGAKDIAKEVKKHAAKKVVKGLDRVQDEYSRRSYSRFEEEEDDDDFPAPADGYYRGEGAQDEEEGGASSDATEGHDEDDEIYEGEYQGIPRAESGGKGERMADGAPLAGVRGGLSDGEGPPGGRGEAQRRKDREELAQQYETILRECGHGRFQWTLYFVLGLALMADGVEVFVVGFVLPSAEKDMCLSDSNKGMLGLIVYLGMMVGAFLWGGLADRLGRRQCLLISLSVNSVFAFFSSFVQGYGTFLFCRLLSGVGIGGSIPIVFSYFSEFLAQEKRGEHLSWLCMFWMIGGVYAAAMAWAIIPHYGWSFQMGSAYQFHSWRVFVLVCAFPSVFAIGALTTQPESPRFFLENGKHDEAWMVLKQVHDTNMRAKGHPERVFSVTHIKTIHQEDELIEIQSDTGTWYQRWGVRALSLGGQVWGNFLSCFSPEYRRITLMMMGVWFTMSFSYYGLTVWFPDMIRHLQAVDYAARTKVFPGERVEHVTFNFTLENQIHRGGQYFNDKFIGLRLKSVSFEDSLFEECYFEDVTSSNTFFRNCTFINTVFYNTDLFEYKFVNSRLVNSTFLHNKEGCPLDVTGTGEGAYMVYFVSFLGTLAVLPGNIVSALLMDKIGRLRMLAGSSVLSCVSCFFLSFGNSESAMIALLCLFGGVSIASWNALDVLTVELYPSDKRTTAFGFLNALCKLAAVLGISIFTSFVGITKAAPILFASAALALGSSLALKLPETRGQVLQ

How the values were obtained:
[1] = biological target: T1, levetiracetam binding site (LBS) (Rattus norvegicus, UniProt Q02563); conditions: cited from earlier work
T1 construct: host or cells: crude rat brain membranes (Noyer et al. 1995; Gillard et al. 2003)

audiogenic seizures = conditions: in vivo; cited from earlier work

## NC(=O)CN1CCCC1=O [piracetam, 2-oxo-pyrrolidineacetamide]
[1]
  displacement of LEV binding: displaced LEV binding
Audiogenic seizures
  suppression of seizures in the audiogenic-susceptible mouse: only weakly active
